Test results as given in patent US20210299094A1, “METHODS OF UPREGULATING TIPARP AS ANTICANCER STRATEGIES” (CORNELL UNIVERSITY, priority 2018, published 2021).
Like-named read-outs stand apart in the source and are kept apart here.

Experiments:
TiPARP mRNA [1] = details: human
Method: (§1) Quantitative Real Time PCR (qRT-PCR)
(§2) Total RNA. was isolated using RNeasy Mini kit (Qiagen) according to the manufacturer's instructions. 0.2 μg sample of total RNA was employed for cDNA synthesis using the Superscript III First-Strand Synthesis kit (Invitrogen) following the manufacturer's instructions. For quantitative real-time PCR analysis, iTaq Universal SYBR Green Supermix (Bio-Rad) was used following the manufacturer's instructions. The reaction was performed with QuantStudio™ 7 Flex Real-Time PCR System (APPLIED BIOSYSTEMS™). In each run, melt curve analysis was performed to ensure the amplification of a single product. The relative expression of each gene, normalized to actin, was calculated using the 2^−ΔΔCt method. The following primers were used for qRT-PCR: VEGF: 5′-[…]-3′ (SEQ ID NO: 24) and 5′-[…]-3′ (SEQ ID NO: 25); GLUT1: 5′-[…] CTAAA-3′ (SEQ ID NO: 26) and 5′˜[…]-3′ (SEQ ID NO: 27); PDK1: 5′-[…]-3′ (SEQ ID NO: 28) and 5′-[…]-3′ (SEQ ID NO: 29); WSBJ: 5′-[…]-3′ (SEQ ID NO: 30) and 5′-[…]-3′ (SEQ ID NO: 31); LDHA: 5′-[…]-3′ (SEQ ID NO: 32) and 5′-[…] CAG-3′ (SEQ ID NO: 33); CXCR4: 5′-[…]-3′ (SEQ ID NO: 34) and 5′-[…]-3′ (SEQ ID NO: 35); TIPARP: 5′-[…]-3′ (SEQ ID NO: 36) and 5′-[…]-3′ (SEQ ID NO: 37), ACTIN: 5′-[…]-3′ (SEQ ID NO: 38) and 5′-[…]-3′ (SEQ ID NO: 39).

TiPARP mRNA [2] = details: human; remark: listed apart in the source
Method: as §1, §2

TiPARP mRNA [3] = details: human; remark: listed apart in the source
Method: as §1, §2

HCT116 = experiment: IC50 in HCT116 cell line; type: cell-based; details: Homo sapiens, HCT-116
SKBR3 (ER neg.) = experiment: IC50 in SKBR3 (ER neg.) cell line; type: cell-based; details: Homo sapiens, SK-BR-3
MCF-7 (ER pos.) = experiment: IC50 in MCF-7 (ER pos.) cell line; type: cell-based; details: Homo sapiens, MCF7
MDA-MB-231 (ER negative) = experiment: IC50 in MDA-MB-231 (ER negative) cell line; type: cell-based; details: Homo sapiens
MDA-MB-468 (ER negative) = experiment: IC50 in MDA-MB-468 (ER negative) cell line; type: cell-based; details: Homo sapiens
A549 = experiment: cells; details: Homo sapiens, A549, read-out: IC50 value

TiPARP mRNA fold induction (TiPARP mRNA [1]): 14.5 fold
TiPARP mRNA fold induction (TiPARP mRNA [2]): 56.0 fold
TiPARP mRNA fold induction (TiPARP mRNA [3]): 2.0 fold
IC50 (HCT116): 8.6 µM
IC50 (SKBR3 (ER neg.)): 9.7 µM
IC50 (MCF-7 (ER pos.)): 0.88 µM
IC50 (MDA-MB-231 (ER negative)): 2.2 µM
IC50 (MDA-MB-468 (ER negative)): 1.5 µM
IC50 (A549): 26.2 µM
SMILES: CC/C(=C(\c1ccccc1)c1ccc(OCCN(C)C)cc1)c1ccccc1 [tamoxifen]
